# Laboratory results published in the supplement of paper PMC8728848.
# This is one part of the list.
# How the values were obtained:
# Experiment in all cases: glycan array binding signal (z-score within array); higher = stronger binding
# Settings in all cases: glycan notation: IUPAC condensed, linker removed
# Fuc(a1-2)Gal = molecular target: Fuc(a1-2)Gal
# Method in brief: (§1)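 The binding signal is a Z-score computed within each array. Data were drawn from 3228 arrays in the Consortium for Functional Glycomics database, restricted to those with a known protein sequence. Scores were averaged over arrays of the same protein sequence at different concentrations or buffers, and over linkers, and negative values can be taken as non-binding.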
# Fuc(a1-2)Gal(b1-3)GalNAc = molecular target: Fuc(a1-2)Gal(b1-3)GalNAc
# Method in brief: as §1
# [1] = molecular target: Fuc(a1-2)Gal(b1-3)GalNAc(a1-3)[Fuc(a1-2)]Gal(b1-4)Glc
# Method in brief: as §1
# [2] = molecular target: Fuc(a1-2)Gal(b1-3)GalNAc(a1-3)[Fuc(a1-2)]Gal(b1-4)GlcNAc
# Method in brief: as §1
# [3] = molecular target: Fuc(a1-2)Gal(b1-3)GalNAc(b1-3)Gal
# Method in brief: as §1
# [4] = molecular target: Fuc(a1-2)Gal(b1-3)GalNAc(b1-3)Gal(a1-4)Gal(b1-4)Glc
# Method in brief: as §1
# [5] = molecular target: Fuc(a1-2)Gal(b1-3)GalNAc(b1-4)[Neu5Ac(a2-3)]Gal(b1-4)Glc
# Method in brief: as §1
# Fuc(a1-2)Gal(b1-3)GlcNAc = molecular target: Fuc(a1-2)Gal(b1-3)GlcNAc
# Method in brief: as §1
# [6] = molecular target: Fuc(a1-2)Gal(b1-3)GlcNAc(b1-2)Man(a1-3)[Fuc(a1-2)Gal(b1-3)GlcNAc(b1-2)Man(a1-6)]Man(b1-4)GlcNAc(b1-4)GlcNAc
# Method in brief: as §1
# [7] = molecular target: Fuc(a1-2)Gal(b1-3)GlcNAc(b1-3)Gal(b1-4)Glc
# Method in brief: as §1
# [8] = molecular target: Fuc(a1-2)Gal(b1-3)GlcNAc(b1-3)[Fuc(a1-3)[Gal(b1-4)]GlcNAc(b1-6)]Gal(b1-4)Glc
# Method in brief: as §1
# [9] = molecular target: Fuc(a1-2)Gal(b1-3)[Fuc(a1-4)]GlcNAc
# Method in brief: as §1
# [10] = molecular target: Fuc(a1-2)Gal(b1-3)[Fuc(a1-4)]GlcNAc(b1-2)Man(a1-3)[Fuc(a1-2)Gal(b1-3)[Fuc(a1-4)]GlcNAc(b1-2)Man(a1-6)]Man(b1-4)GlcNAc(b1-4)GlcNAc
# Method in brief: as §1
# [11] = molecular target: Fuc(a1-2)Gal(b1-3)[Fuc(a1-4)]GlcNAc(b1-3)[Fuc(a1-3)[Gal(b1-4)]GlcNAc(b1-6)]Gal(b1-4)Glc
# Method in brief: as §1
# [12] = molecular target: Fuc(a1-2)Gal(b1-3)[Fuc(a1-4)]GlcNAc(b1-3)[Gal(b1-4)GlcNAc(b1-6)]Gal(b1-4)Glc
# Method in brief: as §1
# Fuc(a1-2)Gal(b1-4)Glc = molecular target: Fuc(a1-2)Gal(b1-4)Glc
# Method in brief: as §1
# Fuc(a1-2)Gal(b1-4)Glc6S = molecular target: Fuc(a1-2)Gal(b1-4)Glc6S
# Method in brief: as §1
# Fuc(a1-2)Gal(b1-4)GlcNAc = molecular target: Fuc(a1-2)Gal(b1-4)GlcNAc
# Method in brief: as §1
# [13] = molecular target: Fuc(a1-2)Gal(b1-4)GlcNAc(b1-2)Man(a1-3)[Fuc(a1-2)Gal(b1-4)GlcNAc(b1-2)Man(a1-6)]Man(b1-4)GlcNAc(b1-4)GlcNAc
# Method in brief: as §1
# [14] = molecular target: Fuc(a1-2)Gal(b1-4)GlcNAc(b1-3)Gal(b1-4)GlcNAc
# Method in brief: as §1
# [15] = molecular target: Fuc(a1-2)Gal(b1-4)GlcNAc(b1-3)Gal(b1-4)GlcNAc(b1-3)Gal(b1-4)GlcNAc
# Method in brief: as §1
# [16] = molecular target: Fuc(a1-2)Gal(b1-4)GlcNAc(b1-3)GalNAc
# Method in brief: as §1
# [17] = molecular target: Fuc(a1-2)Gal(b1-4)GlcNAc6S
# Method in brief: as §1
# [18] = molecular target: Fuc(a1-2)Gal(b1-4)[Fuc(a1-3)]GlcNAc
# Method in brief: as §1
# [19] = molecular target: Fuc(a1-2)Gal(b1-4)[Fuc(a1-3)]GlcNAc(b1-2)Man(a1-3)[Fuc(a1-2)Gal(b1-4)[Fuc(a1-3)]GlcNAc(b1-2)Man(a1-6)]Man(b1-4)GlcNAc(b1-4)GlcNAc
# Method in brief: as §1
# [20] = molecular target: Fuc(a1-2)Gal(b1-4)[Fuc(a1-3)]GlcNAc(b1-3)Gal(b1-4)[Fuc(a1-3)]GlcNAc
# Method in brief: as §1
# [21] = molecular target: Fuc(a1-2)Gal(b1-4)[Fuc(a1-3)]GlcNAc(b1-3)Gal(b1-4)[Fuc(a1-3)]GlcNAc(b1-3)Gal(b1-4)[Fuc(a1-3)]GlcNAc
# Method in brief: as §1
# Fuc(a1-2)Gal6S(b1-4)Glc = molecular target: Fuc(a1-2)Gal6S(b1-4)Glc
# Method in brief: as §1
# [22] = molecular target: Fuc(a1-2)Gal6S(b1-4)Glc6S
# Method in brief: as §1
# [23] = molecular target: Fuc(a1-2)Gal6S(b1-4)GlcNAc
# Method in brief: as §1
binder,measurement,setting,value
"SspB (Streptococcus gordonii), P16952 (protein) MKNKKEVYGFRKSKVAKTLCGAVLGTALIAFADKAVFADEVTETTSTSTVEVATTGNPATNLPEAQGEMSQVAKESQAKAGSKESALPVEVSSADLDKAVADAKSAGVKVVQDETKDKGTATTATDNAQKQDEIKSDYAKQAEEIKTTTEAYKKEVAAHQAETDKINAENKAADDKYQKDLKSHQEEVEKINTANATAKAEYEAKLAQYQKDLATVKKANEDSQQDYQNKLSAYQTELARVQKANAEAKEAYEKAVKENTAKNEALKVENEAIKQRNETAKATYEAAMKQYEADLAAIKKANEDNDADYQAKLAAYQTELARVQKANAEAKEAYDKAVKENTAKNTAIQAENEAIKQRNETAKATYDAAVKKYEADLAAVKQANATNEADYQAKLAAYQTELARVQKANADAKATYEKAVEDNKAKNAAIKAENEEIKQRNAVAKTDYEAKLAKYEADLAKYKKEFAAYTAALAEAESKKKQDGYLSEPRSQSLNFKSEPNAIRTIDSSVHQYGQQELDALVKSWGISPTNPDRKKSRAYSYFNAINSNNTYAKLVLEKDKPVDVTYTGLKNSSFNGKKISKVVYTYTLKETGFNDGTKMTMFASSDPTVTAWYNDYFTSTNINVKVKFYDEEGQLMNLTGGLVNFSSLNRGNGSGAIDKDAIESVRNFNGRYIPISGSSIKIHENNSAYADSSNAEKSLGARWNTSEWDTTSSPNNWYGAIVGEITQSEISFNMASSKSGNIWFAFNSNINAIGVPTKPVAPTAPTQPMYETEKPLEPAPVAPSYENEPTPPVKTPDQPEPSKPEEPTYETEKPLEPAPVAPSYENEPTPPVKTPDQPEPSKPEEPNYETEKPLEPAPVAPSYENEPTPPVKIPDQPEPSKPEEPTYDPLPTPPLAPTPKQLPTPPVVPTVHFHYSSLLAQPQINKEIKNEDGVDIDRTLVAKQSIVKFELKTEALTAGRPKTTSFVLVDPLPTGYKFDLDATKAASTGFDTTYDEASHTVTFKATDETLATYNADLTKPVETLHPTVVGRVLNDGATYTNNFTLTVNDAYGIKSNVVRVTTPGKPNDPDNPNNNYIKPTKVNKNKEGLNIDGKEVLAGSTNYYELTWDLDQYKGDKSSKEAIQNGFYYVDDYPEEALDVRPDLVKVADEKGNQVSGVSVQQYDSLEAAPKKVQDLLKKANITVKGAFQLFSADNPEEFYKQYVATGTSLVITDPMTVKSEFGKTGGKYENKAYQIDFGNGYATEVVVNNVPKITPKKDVTVSLDPTSENLDGQTVQLYQTFNYRLIGGLIPQNHSEELEDYSFVDDYDQAGDQYTGNYKTFSSLNLTMKDGSVIKAGTDLTSQTTAETDATNGIVTVRFKEDFLQKISLDSPFQAETYLQMRRIAIGTFENTYVNTVNKVAYASNTVRTTTPIPRTPDKPTPIPTPKPKDPDKPETPKEPKVPSPKVEDPSAPIPVSVGKELTTLPKTGTNDATYMPYLGLAALVGFLGLGLAKRKED",glycan array binding signal (z-score),Fuc(a1-2)Gal,-1.2
same,glycan array binding signal (z-score),Fuc(a1-2)Gal(b1-3)GalNAc,-0.545
same,glycan array binding signal (z-score),[1],1.87
same,glycan array binding signal (z-score),[2],-0.567
same,glycan array binding signal (z-score),[3],-0.306
same,glycan array binding signal (z-score),[4],0.643
same,glycan array binding signal (z-score),[5],-0.37
same,glycan array binding signal (z-score),Fuc(a1-2)Gal(b1-3)GlcNAc,-1.03
same,glycan array binding signal (z-score),[6],-0.918
same,glycan array binding signal (z-score),[7],0.184
same,glycan array binding signal (z-score),[8],1.82
same,glycan array binding signal (z-score),[9],0.647
same,glycan array binding signal (z-score),[10],-0.314
same,glycan array binding signal (z-score),[11],-0.658
same,glycan array binding signal (z-score),[12],0.034
same,glycan array binding signal (z-score),Fuc(a1-2)Gal(b1-4)Glc,0.44
same,glycan array binding signal (z-score),Fuc(a1-2)Gal(b1-4)Glc6S,-0.928
same,glycan array binding signal (z-score),Fuc(a1-2)Gal(b1-4)GlcNAc,-0.118
same,glycan array binding signal (z-score),[13],-1.19
same,glycan array binding signal (z-score),[14],-0.608
same,glycan array binding signal (z-score),[15],-0.303
same,glycan array binding signal (z-score),[16],-0.329
same,glycan array binding signal (z-score),[17],1.3
same,glycan array binding signal (z-score),[18],0.357
same,glycan array binding signal (z-score),[19],1.22
same,glycan array binding signal (z-score),[20],-0.255
same,glycan array binding signal (z-score),[21],1.55
same,glycan array binding signal (z-score),Fuc(a1-2)Gal6S(b1-4)Glc,1.12
same,glycan array binding signal (z-score),[22],1.29
same,glycan array binding signal (z-score),[23],-0.04
